Article PMC11077062
Results are given in words; binding and its absence hold for the method and conditions named. In cells and extracts the contact can be indirect. Some results given as binding are weak or reduced against the parent protein; the word gives no strength. Tags and fused reporters may be left off the sequences shown.

By UniProt entry, the sequences of proteins in these tests, tags left out.
UniProt P60281: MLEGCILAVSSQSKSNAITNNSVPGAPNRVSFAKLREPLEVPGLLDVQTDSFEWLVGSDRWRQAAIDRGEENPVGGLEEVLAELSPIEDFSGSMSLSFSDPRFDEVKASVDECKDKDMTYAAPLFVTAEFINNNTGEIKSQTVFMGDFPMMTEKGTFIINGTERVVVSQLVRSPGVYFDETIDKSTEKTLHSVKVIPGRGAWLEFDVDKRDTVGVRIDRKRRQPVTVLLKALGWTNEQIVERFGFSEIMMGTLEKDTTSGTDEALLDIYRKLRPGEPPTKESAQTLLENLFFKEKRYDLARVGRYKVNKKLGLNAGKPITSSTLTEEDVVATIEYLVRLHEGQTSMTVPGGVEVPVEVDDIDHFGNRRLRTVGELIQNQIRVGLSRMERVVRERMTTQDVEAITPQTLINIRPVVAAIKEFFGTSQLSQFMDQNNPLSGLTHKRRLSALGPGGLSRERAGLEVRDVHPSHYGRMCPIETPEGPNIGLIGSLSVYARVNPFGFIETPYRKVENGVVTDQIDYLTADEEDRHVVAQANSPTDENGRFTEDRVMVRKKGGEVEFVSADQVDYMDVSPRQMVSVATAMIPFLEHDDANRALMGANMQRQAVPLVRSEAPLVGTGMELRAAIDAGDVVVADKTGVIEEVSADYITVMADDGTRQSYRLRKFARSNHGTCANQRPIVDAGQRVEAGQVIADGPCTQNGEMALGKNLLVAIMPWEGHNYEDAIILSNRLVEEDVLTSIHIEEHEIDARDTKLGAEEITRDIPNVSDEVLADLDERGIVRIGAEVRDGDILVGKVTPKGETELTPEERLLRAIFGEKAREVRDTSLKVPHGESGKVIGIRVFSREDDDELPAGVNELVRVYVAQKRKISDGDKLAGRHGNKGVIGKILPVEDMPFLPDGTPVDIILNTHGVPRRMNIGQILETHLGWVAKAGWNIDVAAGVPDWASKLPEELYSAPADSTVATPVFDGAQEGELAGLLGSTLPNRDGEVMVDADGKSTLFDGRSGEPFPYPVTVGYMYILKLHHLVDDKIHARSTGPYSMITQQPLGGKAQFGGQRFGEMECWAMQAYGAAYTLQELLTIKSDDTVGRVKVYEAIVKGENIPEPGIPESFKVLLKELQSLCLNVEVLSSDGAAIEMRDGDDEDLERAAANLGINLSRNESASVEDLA

Key:
[1] = biological target: RNA polymerase β subunit (Mycobacterium smegmatis) (Mycobacterium smegmatis (endogenous in M. smegmatis mc2 155)) (UniProt P60281); experiment: co-IP; M. smegmatis lysates (exponential, stationary; also mitomycin C-treated cells); anti-RNAP β [8RB13] or anti-σ70 [2G10] on Protein G plus agarose, 16-18 h at 4°C, 20 mM Tris-HCl pH 7.9, 150 mM KCl, 1 mM MgCl2; silver-stained SDS-PAGE, MALDI-TOF, western blot
[2] = biological target: RNA polymerase β subunit (Mycobacterium smegmatis) (Mycobacterium smegmatis (endogenous in M. smegmatis mc2 155)) (UniProt P60281); experiment: co-IP

| binding [1] | binding [2] | Binder |
| --- | --- | --- |
| binds | – | HelD (Mycobacterium smegmatis) (protein, UniProt A0QUE0 1-736) MSGRDYEDELQSERDYVAGLYARLDAERAQSQRRYAAALREHGGTAVERDAEVRALAKDIARLNVADNGLCFGRLDTLDDARLYIGRLGIFDRDNDFEPLLLDWRAPMARPFYVATAANPENMRRRRQFHTLGRKVVDFTDEILGRPTGAEHDATNDAALLAAVNAPRGEGMRDIVATIQAEQDQVIRLDHTGVLVIEGGPGTGKTVVALHRVAYLLYTYRKQMERHGVLVVGPTPAFLDHIGRVLPSLGESDAVFMTPGDFVPGLHVTAEDTPEAAEVKGSLKILDVLKAAVADRQELPSEPIPIDLSDVTMRIDAETAKWARDEARKTGLPHNEARAEFVDVVTYVVTERAVARIGRGWLTRDDKHAWEKMRADVVGELEDHEQFNAALDALWPILTPEDVLAQLYTSHERLRAAGAPECLWRADGEAWTVSDVPLLDELVDLLGRNKAADEAAERERREEEAYAAGVLDLMVDREDLMDDEDHLLAQDLIDAEELADRFKEQDNRELSERAAADREWTYGHVVVDEAQELSEMDWRLLMRRCPRRSFTIVGDLAQRRSPAGARSWGAMLDSYVPGRWVYKSLSVNYRTPAEIMAVAAAVLAEFAPDATPPDSVRACGVAPWARQVTDDDIASAIAEFVSEEAGREGTSVVIGPPDVPGTVPPSETKGLEFDAVLVVEPERILADGPRGAAELYVALTRATQRLGVLYRDALPQALAGLAEGDAAATVEQRTSA |
| – | binds | RbpA (Mycobacterium smegmatis) (protein, UniProt A0QZ11 1-114) MADRVLRGSRLGAVSYETDRNHDLAPRQVARYRTDNGEEFDVPFADDAEIPGTWLCRNGLEGTLIEGDVPEPKKVKPPRTHWDMLLERRSVEELEELLKERLDLIKAKRRGTGS |
